Experimental data from article PMC7819943, “Rice protein-binding microarrays: a tool to detect cis-acting elements near promoter regions in rice”.
This is one part of the list.

Sequences of proteins named here, by UniProt entry; tags and fusion partners are left off.
UniProt Q0JBA9, entry or part of it: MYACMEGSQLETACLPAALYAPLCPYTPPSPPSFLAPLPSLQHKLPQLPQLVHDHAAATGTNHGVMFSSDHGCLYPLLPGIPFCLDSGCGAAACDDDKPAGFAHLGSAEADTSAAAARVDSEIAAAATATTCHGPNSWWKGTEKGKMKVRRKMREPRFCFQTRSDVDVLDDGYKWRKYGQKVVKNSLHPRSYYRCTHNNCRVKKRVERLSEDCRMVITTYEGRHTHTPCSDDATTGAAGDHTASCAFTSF

What follows are sequences tested against OsWRKY34 (Oryza sativa, UniProt Q0JBA9 1-250) (assay: protein-binding microarray (RPBM); PBS, 2% BSA, 51.3 ng/ul salmon testes DNA, 50 uM zinc acetate, 200 nM TF, 25 C, 1 h; high values mean tight binding). Details: protein: recombinant; tags: N-terminal polyhistidine and DsRed monomer fusion (pET32a); label: CyDye5-dUTP incorporated in the synthesized complementary strand; 3' TTTTT single-stranded linker to array surface; dsDNA, one strand shown.
Summary of the method: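 Transcription factors were each fused at the N-terminus to a polyhistidine tag plus DsRed and expressed in E. coli BL21-CodonPlus before Ni–NTA purification. Binding to a double-stranded custom Agilent array was carried out with 200 nM protein at 25 °C for 1 h in PBS, 2% BSA, salmon testes DNA and 50 µM zinc acetate. The binding signal is per-feature fluorescence intensity, in arbitrary units, on an Axon 4000B scanner.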

Sequence | binding signal
GTCATACATTAGCAGCCGCTGACCCCTGCATTAATAAACCCGGAGTCACCTAGTGCAG | 8480 fluorescence intensity (a.u.)
TCCATGTCATCGCCACCGTGTCACCCCTCCACCCAACCGACGGAGTCACCTAGTGCAG | 9500 fluorescence intensity (a.u.)
CTGACGACTGGGTCCCACCACTCTTTCCGACCCCACCTGTCGGAGTCACCTAGTGCAG | 8540 fluorescence intensity (a.u.)
ACGTAGGAAGGTGGAAGCGGTTTCTTGGGGTTTGGATATGCGGAGTCACCTAGTGCAG | 11000 fluorescence intensity (a.u.)
CTAGATCTACTCCTCTTCCTCACCTATCACACTGCCATGTCGGAGTCACCTAGTGCAG | 9340 fluorescence intensity (a.u.)
TCTCATCCCAAGTAACTTTGACCGGTACTACAGGTAACATCGGAGTCACCTAGTGCAG | 8660 fluorescence intensity (a.u.)
CCTAGGTTTTCGTGTCCAGCGTTCGATTGTCCGTCTTATACGGAGTCACCTAGTGCAG | 11100 fluorescence intensity (a.u.)
TCTCGTCTCGTCTCCTTCTCATCCAATCTCAATCTCACCACGGAGTCACCTAGTGCAG | 11500 fluorescence intensity (a.u.)
GTGGGCTGTTTCCACGTCGTCCGTTTCTGGGCCGCACGTGCGGAGTCACCTAGTGCAG | 12600 fluorescence intensity (a.u.)
CTATCGCCATCGATTCCGGTCACCGCTGCTTGCAACAAGACGGAGTCACCTAGTGCAG | 8530 fluorescence intensity (a.u.)
ATAGAAGCTACTCCGCATGTGAAAGACCAACCATTTTATTCGGAGTCACCTAGTGCAG | 8450 fluorescence intensity (a.u.)
TGTCGTCTATATCTCTCCGCGCGCGCTTTTGGAGCTTTCCCGGAGTCACCTAGTGCAG | 10800 fluorescence intensity (a.u.)
TTACTTGATTGATATTTTTCATTTATTTTACTATTATAGTCGGAGTCACCTAGTGCAG | 8810 fluorescence intensity (a.u.)
GTCTCCCACATCCGCGGCGAGGGCGGTGCTCCGTTGACCGCGGAGTCACCTAGTGCAG | 12200 fluorescence intensity (a.u.)
GCTGGTGGTATGAGGAATTTGTTGTCGACACAATCGTTTACGGAGTCACCTAGTGCAG | 8450 fluorescence intensity (a.u.)
TTATTATATCGGATTGGCTACTCTTCTGTCGACAGATTTTCGGAGTCACCTAGTGCAG | 10500 fluorescence intensity (a.u.)
GAATTTTAGGGTGGGATCTAAAGATGGCCTTAAAGGAGAACGGAGTCACCTAGTGCAG | 8330 fluorescence intensity (a.u.)
GACGATTAACTCAGCTCTCATTGTTGTCAACTCGCTGACTCGGAGTCACCTAGTGCAG | 11900 fluorescence intensity (a.u.)
ACATACAACCTCTGCCCACATGTCAATTGCACACAGGGTTCGGAGTCACCTAGTGCAG | 8600 fluorescence intensity (a.u.)
TTGTTGTTCTCTTCCCTTGGGTTTTGTCTGTAACGTCGAGCGGAGTCACCTAGTGCAG | 10200 fluorescence intensity (a.u.)
GCTTATAGCCTGCTATTGTACCTGCTCTAACCTGATTTCCCGGAGTCACCTAGTGCAG | 10100 fluorescence intensity (a.u.)

Sequence | binding signal
GAGCTTTTTATTGTTCATAATTATTATAGGATATTTTTTTCGGAGTCACCTAGTGCAG | 10000 fluorescence intensity (a.u.)
TTCCCGTTCCATTTCTTGCACAACTACTCCTCTAGCCAAACGGAGTCACCTAGTGCAG | 8160 fluorescence intensity (a.u.)
TCGCTTTTACCATCCGCCCTTGCTTTCTACTGTTATATATCGGAGTCACCTAGTGCAG | 10800 fluorescence intensity (a.u.)
AATGACAACCCTAAGCTAATCCTAGGCACAATTTTTTACCCGGAGTCACCTAGTGCAG | 9570 fluorescence intensity (a.u.)
ATTCCTTCGTCTGTTGCTGCTGACTGCGCGGGGCGGAAGACGGAGTCACCTAGTGCAG | 9910 fluorescence intensity (a.u.)
GTGCTGTAAACCTTGCTGCCCACTTGTCATCTCGTACTACCGGAGTCACCTAGTGCAG | 13100 fluorescence intensity (a.u.)
TTGGGTTGGACCAAGTTAGTGTTTGGTACATTGGCATTTTCGGAGTCACCTAGTGCAG | 8620 fluorescence intensity (a.u.)
AGCTAGTTTCCGACCGTATTCGATCCGTTTTCATCCTAGTCGGAGTCACCTAGTGCAG | 8060 fluorescence intensity (a.u.)
GAAAGAAACAAGTGTGGGGTCATGCCTTGACCACATGCATCGGAGTCACCTAGTGCAG | 9030 fluorescence intensity (a.u.)
GATGGGAAGTGCAATATTTGTTGGGGATCGCGAGGGAGAGCGGAGTCACCTAGTGCAG | 9180 fluorescence intensity (a.u.)
ATTTAGGGAAATTATAACCATGCCACTCTGTCGTGTTTTCCGGAGTCACCTAGTGCAG | 9180 fluorescence intensity (a.u.)
TTGTGGAGGAGGTGGGCGGCTATTCGGCGCCGGTTCTTGCCGGAGTCACCTAGTGCAG | 8650 fluorescence intensity (a.u.)
ACTAATAACATCCTCACAAGTTGTTTGCTTGTTTTTCAACCGGAGTCACCTAGTGCAG | 8590 fluorescence intensity (a.u.)
TTTGTGCGTGTTACGAGTGACTTGCGTTTATATCCTGCTTCGGAGTCACCTAGTGCAG | 8220 fluorescence intensity (a.u.)
TGTTTAATACCACGGTTGCTTGCTGTTGTAGCTCTATTCCCGGAGTCACCTAGTGCAG | 9180 fluorescence intensity (a.u.)
ATACTTACATTTCTCAATGTCCATGTAGCCAATCATGTATCGGAGTCACCTAGTGCAG | 9670 fluorescence intensity (a.u.)
CTCTGTTCATCCATTGGTCGGCCAGCGCGGCGCGCACACGCGGAGTCACCTAGTGCAG | 8930 fluorescence intensity (a.u.)
TCTCTTCACACCATCACATGTAGTGCGTGTACTCCTAGAGCGGAGTCACCTAGTGCAG | 9520 fluorescence intensity (a.u.)
TAATACTCCTACTATGGACTTGTTCTCCGTGTTGCTTATTCGGAGTCACCTAGTGCAG | 10200 fluorescence intensity (a.u.)
CCGATGATTCTACTGGATCCGCCGTTTCTCCGCGTTCGATCGGAGTCACCTAGTGCAG | 8300 fluorescence intensity (a.u.)
CTCCTCGGTCTTTGTGCGTGCTTGTAGTGTCTGTCCACTCCGGAGTCACCTAGTGCAG | 11100 fluorescence intensity (a.u.)

As a working copy, part of the list above.
Sequence | binding signal
GTGCTGTAAACCTTGCTGCCCACTTGTCATCTCGTACTACCGGAGTCACCTAGTGCAG | 13100 fluorescence intensity (a.u.)
TTGGGTTGGACCAAGTTAGTGTTTGGTACATTGGCATTTTCGGAGTCACCTAGTGCAG | 8620 fluorescence intensity (a.u.)
AGCTAGTTTCCGACCGTATTCGATCCGTTTTCATCCTAGTCGGAGTCACCTAGTGCAG | 8060 fluorescence intensity (a.u.)
GAAAGAAACAAGTGTGGGGTCATGCCTTGACCACATGCATCGGAGTCACCTAGTGCAG | 9030 fluorescence intensity (a.u.)
GATGGGAAGTGCAATATTTGTTGGGGATCGCGAGGGAGAGCGGAGTCACCTAGTGCAG | 9180 fluorescence intensity (a.u.)
ATTTAGGGAAATTATAACCATGCCACTCTGTCGTGTTTTCCGGAGTCACCTAGTGCAG | 9180 fluorescence intensity (a.u.)
TTGTGGAGGAGGTGGGCGGCTATTCGGCGCCGGTTCTTGCCGGAGTCACCTAGTGCAG | 8650 fluorescence intensity (a.u.)
ACTAATAACATCCTCACAAGTTGTTTGCTTGTTTTTCAACCGGAGTCACCTAGTGCAG | 8590 fluorescence intensity (a.u.)
TTTGTGCGTGTTACGAGTGACTTGCGTTTATATCCTGCTTCGGAGTCACCTAGTGCAG | 8220 fluorescence intensity (a.u.)
